Results are given in words; binding and its absence hold for the method and conditions named. Binding seen in cells or lysates may run through a third protein. Some results given as binding are weak or reduced against the parent protein; the word gives no strength.
Target: T1, lynx2 nicotinic receptor modulatory protein (mouse (endogenous in BLA tissue)) (UniProt Q8BLC3)
T1 sequence: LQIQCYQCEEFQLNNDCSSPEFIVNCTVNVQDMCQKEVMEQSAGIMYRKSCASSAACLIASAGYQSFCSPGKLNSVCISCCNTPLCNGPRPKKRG
Test: co-IP; BLA homogenate of WT mice (13 mg/ml) in Co-IP buffer (50 mM Tris, 150 mM NaCl, 0.75% Triton-X 100, protease inhibitors) incubated 3 days at RT with Dynabeads A carrying rabbit anti-lypd1 (lynx2) antibody; eluate blotted with anti-α7 nAChR subunit antibody; lynx2KO mice as negative control

Chains of the proteins cited; added tags and fusions are not shown. Residues count along the entry.
UniProt P49582, residues 23-502: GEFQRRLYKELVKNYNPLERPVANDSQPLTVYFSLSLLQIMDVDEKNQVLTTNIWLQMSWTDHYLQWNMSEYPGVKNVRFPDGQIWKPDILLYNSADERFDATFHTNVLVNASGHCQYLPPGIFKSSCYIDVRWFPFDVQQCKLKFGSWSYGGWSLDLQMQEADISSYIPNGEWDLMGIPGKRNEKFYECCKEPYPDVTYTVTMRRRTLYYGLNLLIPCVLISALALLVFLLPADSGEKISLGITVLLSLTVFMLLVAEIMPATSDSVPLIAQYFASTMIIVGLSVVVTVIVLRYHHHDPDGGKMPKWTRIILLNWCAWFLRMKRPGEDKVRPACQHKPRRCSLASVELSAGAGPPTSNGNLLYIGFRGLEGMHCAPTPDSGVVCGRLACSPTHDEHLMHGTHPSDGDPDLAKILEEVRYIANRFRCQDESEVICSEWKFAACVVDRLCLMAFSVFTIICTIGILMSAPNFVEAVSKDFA

- binding: binds
Substance: α7 nicotinic acetylcholine receptor subunit (from UniProt P49582 23-502)

Reference: paper PMC9915767
